Laboratory results as given in the supplement of paper PMC6078165.

System: HCC1143
Assay: relative JC-1 red fluorescence (viability) vs pre-drug, coculture with fibroblast (fraction); higher = more viable cancer cells
Experimental: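 JC-1 labelled TNBC cells cocultured 1:1 (1,500 cells each) with CellTrace Violet stained primary or stromal fibroblasts in 384-well plates in FluoroBrite medium, treated with one of 42 anticancer drugs at 0.1, 1, 10 or 100 uM. JC-1 red fluorescence (mitochondrial integrity in cancer cells only) was read by plate reader every 8 h for 72 h. Values are normalised to each well's pre-drug value. The stock of one drug was tenfold lower, so its dose labels may be too high.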

N#Cc1ccc(C(c2ccc(C#N)cc2)n2cncn2)cc1 [Letrozole]
relative JC-1 red fluorescence
Details	8 h	16 h	24 h	32 h	40 h	48 h	56 h	64 h	72 h
0.1 µM, coculture fibroblast: C12385	0.82889	0.718	0.642	0.58	0.51	0.455	0.401	0.365	0.344
0.1 µM, coculture fibroblast: H6013	0.773	0.691	0.66	0.646	0.571	0.559	0.521	0.495	0.466
0.1 µM, coculture fibroblast: H6019	0.802	0.72	0.653	0.5798	0.5268	0.495	0.437	0.395	0.364
0.1 µM, coculture fibroblast: H6076	0.822	0.824	0.788	0.738	0.685	0.669	0.642	0.609	0.619
0.1 µM, coculture fibroblast: H6231	0.811	0.801	0.716	0.5903	0.598	0.558	0.52	0.472	0.449
0.1 µM, coculture fibroblast: HADF	0.76	0.6706	0.6458	0.648	0.55	0.528	0.495	0.469	0.452
0.1 µM, coculture fibroblast: HCFa	0.7607	0.671	0.6312	0.601	0.511	0.4832	0.427	0.387	0.357
0.1 µM, coculture fibroblast: HCPF	0.819	0.786	0.721	0.63031	0.614	0.577	0.529	0.493	0.467
0.1 µM, coculture fibroblast: HHSteC	0.832	0.795	0.759	0.725	0.65	0.629	0.581	0.552	0.497
0.1 µM, coculture fibroblast: HMF	0.8089	0.789	0.705	0.637	0.6	0.563	0.521	0.495	0.465
0.1 µM, coculture fibroblast: HPFa	0.882	0.781	0.75	0.657	0.6	0.562	0.496	0.439	0.393
0.1 µM, coculture fibroblast: HUF	0.848	0.753	0.707	0.635	0.586	0.564	0.508	0.469	0.44
0.1 µM, coculture fibroblast: Hs5	0.856	0.89252	0.833	0.778	0.726	0.695	0.658	0.629	0.608
0.1 µM, coculture fibroblast: Hs27A	0.724	0.614	0.577	0.58	0.455	0.433	0.382	0.347	0.316
0.1 µM, coculture fibroblast: Hs343T	0.821	0.793	0.718	0.64	0.59	0.551	0.497	0.472	0.453
0.1 µM, coculture fibroblast: WS1	0.8065	0.7418	0.687	0.615	0.561	0.511	0.462	0.423	0.396
1 µM, coculture fibroblast: C12385	0.827	0.721	0.637	0.57	0.514	0.469	0.433	0.396	0.38
1 µM, coculture fibroblast: H6013	0.799	0.719	0.695	0.69	0.63	0.623	0.581	0.557	0.504
1 µM, coculture fibroblast: H6019	0.793	0.721	0.701	0.647	0.594	0.576	0.527	0.481	0.445
1 µM, coculture fibroblast: H6076	0.792	0.776	0.709	0.657	0.608	0.591	0.552	0.529	0.529
1 µM, coculture fibroblast: H6231	0.805	0.781	0.693	0.607	0.596	0.564	0.529	0.487	0.461
1 µM, coculture fibroblast: HADF	0.791	0.74	0.715	0.731	0.659	0.644	0.615	0.594	0.577
1 µM, coculture fibroblast: HCFa	0.82	0.719	0.72	0.71	0.629	0.597	0.554	0.522	0.487
1 µM, coculture fibroblast: HCPF	0.827	0.7684	0.717	0.679	0.629	0.596	0.558	0.523	0.507
1 µM, coculture fibroblast: HHSteC	0.845	0.777	0.761	0.742	0.678	0.648	0.609	0.575	0.519
1 µM, coculture fibroblast: HMF	0.777	0.755	0.6856	0.6155	0.574	0.542	0.501	0.469	0.453
1 µM, coculture fibroblast: HPFa	0.911	0.815	0.78	0.707	0.627	0.588	0.524	0.468	0.419
1 µM, coculture fibroblast: HUF	0.859	0.783	0.729	0.666	0.608	0.583	0.528	0.489	0.468
1 µM, coculture fibroblast: Hs5	0.856	0.845	0.801	0.775	0.718	0.687	0.65	0.616	0.597
1 µM, coculture fibroblast: Hs27A	0.7779	0.7236	0.717	0.735	0.629	0.626	0.578	0.548	0.499
1 µM, coculture fibroblast: Hs343T	0.788	0.831	0.7298	0.627	0.601	0.56	0.496	0.462	0.437
1 µM, coculture fibroblast: WS1	0.8304	0.7371	0.701	0.634	0.566	0.529	0.483	0.443	0.42
10 µM, coculture fibroblast: C12385	0.8492	0.778	0.7031	0.643	0.591	0.55	0.518	0.482	0.463
10 µM, coculture fibroblast: H6013	0.744	0.66	0.61	0.581	0.504	0.493	0.457	0.437	0.404
10 µM, coculture fibroblast: H6019	0.843	0.781	0.754	0.715	0.689	0.664	0.617	0.58	0.551
10 µM, coculture fibroblast: H6076	0.814	0.815	0.776	0.731	0.691	0.667	0.631	0.6116	0.618
10 µM, coculture fibroblast: H6231	0.903	0.8534	0.825	0.799	0.778	0.759	0.725	0.684	0.671
10 µM, coculture fibroblast: HADF	0.733	0.687	0.657	0.668	0.565	0.537	0.505	0.481	0.472
10 µM, coculture fibroblast: HCFa	0.801	0.732	0.684	0.655	0.564	0.535	0.489	0.452	0.42
10 µM, coculture fibroblast: HCPF	0.81	0.813	0.751	0.67	0.666	0.6338	0.5933	0.5518	0.532
10 µM, coculture fibroblast: HHSteC	0.825	0.774	0.742	0.709	0.636	0.612	0.567	0.534	0.492
10 µM, coculture fibroblast: HMF	0.786	0.806	0.731	0.648	0.625	0.595	0.56	0.529	0.496
10 µM, coculture fibroblast: HPFa	0.871	0.788	0.753	0.66	0.606	0.577	0.5224	0.4712	0.4351
10 µM, coculture fibroblast: HUF	0.905	0.833	0.799	0.729	0.689	0.66	0.617	0.589	0.571
10 µM, coculture fibroblast: Hs5	0.841	0.915	0.8384	0.76554	0.7218	0.679	0.641	0.604	0.5849
10 µM, coculture fibroblast: Hs27A	0.721	0.6443	0.601	0.61	0.492	0.475	0.436	0.413	0.417
10 µM, coculture fibroblast: Hs343T	0.8146	0.882	0.823	0.703	0.6997	0.648	0.596	0.563	0.522
10 µM, coculture fibroblast: WS1	0.831	0.754	0.706	0.626	0.576	0.535	0.494	0.453	0.416
100 µM, coculture fibroblast: C12385	0.8688	0.791	0.725	0.66	0.594	0.55	0.508	0.473	0.447
100 µM, coculture fibroblast: H6013	0.8	0.7206	0.731	0.745	0.696	0.691	0.665	0.651	0.618
100 µM, coculture fibroblast: H6019	0.826	0.7563	0.7206	0.6603	0.6304	0.6076	0.564	0.538	0.507
100 µM, coculture fibroblast: H6076	0.8267	0.8115	0.784	0.765	0.728	0.733	0.694	0.677	0.674
100 µM, coculture fibroblast: H6231	0.83	0.822	0.739	0.623	0.646	0.618	0.585	0.554	0.531
100 µM, coculture fibroblast: HADF	0.716	0.641	0.622	0.637	0.535	0.504	0.471	0.445	0.456
100 µM, coculture fibroblast: HCFa	0.774	0.677	0.64665	0.64	0.553	0.525	0.473	0.435	0.411
100 µM, coculture fibroblast: HCPF	0.815	0.856	0.797	0.673	0.723	0.692	0.647	0.613	0.581
100 µM, coculture fibroblast: HHSteC	0.846	0.739	0.718	0.695	0.62	0.588	0.548	0.518	0.47
100 µM, coculture fibroblast: HMF	0.798	0.828	0.7558	0.653	0.657	0.628	0.582	0.541	0.503
100 µM, coculture fibroblast: HPFa	0.938	0.866	0.833	0.759	0.694	0.663	0.606	0.559	0.508
100 µM, coculture fibroblast: HUF	0.839	0.915	0.88	0.801	0.754	0.724	0.66	0.619	0.583
100 µM, coculture fibroblast: Hs5	0.845	0.928	0.8651	0.771	0.738	0.7	0.654	0.618	0.582
100 µM, coculture fibroblast: Hs27A	0.751	0.683	0.632	0.657	0.535	0.515	0.47	0.443	0.4384
100 µM, coculture fibroblast: Hs343T	0.8121	0.8159	0.744	0.666	0.6504	0.614	0.57	0.543	0.516
100 µM, coculture fibroblast: WS1	0.85165	0.778	0.739	0.681	0.636	0.594	0.554	0.514	0.491

Values are relative to the signal before dosing, not to a vehicle control; the signal also falls without drug.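 Fibroblast labels name human fibroblasts: mostly primary ones from tissues such as uterus (C12385, HUF), lung (H6013), bone (Hs27A), adrenal (HADF) and skin (WS1), plus mammary HMF and breast cancer-associated Hs343T. The cancer cells are basal-like or mesenchymal-like triple-negative breast cancer lines. The paper calls a changed response a hit when it shifts by more than 3x the replicate standard deviation. The tissue of the other fibroblasts is not given here.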
